Experimental data from PubChem BioAssay AID1963576 (National Center for Advancing Translational Sciences (NCATS), 2024).
Most of the hits are listed elsewhere, so they are rarer here than in the full data. Results filed as inconclusive are left out. Active and inactive are the calls of the source. Calls come from the whole dose curve; as a rule, active = well fitted inhibition curve with a large enough effect; inconclusive = small, poorly fitted or top-dose-only effect; inactive = no such curve, though single readings can be large or run the other way.

Assay: Primary qHTS assay for Inhibitors of ovarian cancer metastasis using an organotypic tumor microenvironment (TME) model.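 Note: plate controls were DMSO wells for no effect and tomatine positive control wells for full effect; nearly all actives have a fitted effect of over 65% in size.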
Conditions: SKOV3ip1-GFP adhesion/invasion on 3D omental model, fluorescence; at 45.8 µM (top of the series)
From the text: PI: Ernst Lengyel MD., Ph.D. Department of Obstetrics and Gynecology, Section of Gynecologic Oncology University of Chicago Medicine, Chicago, Illinois. The tumor microenvironment (TME) is a key determinant of metastatic efficiency. We performed a quantitative high-throughput screen (qHTS) of diverse medicinal chemistry tractable scaffolds (44,420 compounds) and pharmacologically active small molecules (386 compounds) using a layered organotypic, robust assay representing the ovarian cancer metastatic TME. This 3D model contains primary human mesothelial cells, fibroblasts, and extracellular matrix, to which fluorescently labeled ovarian cancer cells are added. Initially, 100 compounds inhibiting ovarian cancer adhesion/invasion to the 3D model in a dose-dependent manner were identified. […]
PROTOCOL TABLE (as described by Inglese J, Shamu CE and Guy RK. 2007) SEQUENCE No. (e.g., 1, 2, 3, etc.); […] […] 11; Detection; Fluorescence, excitation filter 488 nm, emission filter 509 nm. […] The number of GFP-labeled cells analyzed using a fluorescent cytometer TTP LabTech Acumen eX3 using 488 nm excitation filter and 509 nm emission filter. […] Yasgar A, Shinn P, Jadhav A, Auld DS, Michael S, Zheng W, Austin CP, Inglese J and Simeonov A, Compound Management for Quantitative High-Throughput Screening. […]

SMILES | activity change, negative = inhibition
O=C(CCCCCCC(=O)Nc1ccccc1)NO | inactive: -8.03%
CCS(=O)(=O)N1CC(CC#N)(n2cc(-c3ncnc4[nH]ccc34)cn2)C1 | inactive: 34.6%
